Results published in the supplement of paper PMC11546906.
Counter-ions that a name gives are not always drawn. Some of the results follow. Repeats in this data set agree poorly, so a single value says little.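 Screen of FDA-approved drugs, each combined with colistin at one-eighth of its MIC, against a multidrug-resistant mcr-1-positive clinical E. coli isolate; growth read as OD600 after 24 h. Bacteria without drug were the growth control and plain broth the blank. A combination counted as active when OD600 fell below 0.2.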

These molecules were tested on Escherichia coli 42 (mcr-1-positive clinical isolate) (assay: OD600 after 24 h growth with compound plus colistin (absorbance units (OD600)); higher = more bacterial growth (less inhibition)). Details: first compound 25 µM; colistin concentration 0.5 ug/mL; incubation time 24 h; 37 °C.

Row | SMILES | OD600
1 | CCCOc1ccc(C(=O)OCCN(CC)CC)cc1N [Proparacaine hydrochloride] + CCC(C)CCCC(=O)N[C@@H](CCN)C(=O)N[C@H](C(=O)N[C@@H](CCN)C(=O)N[C@H]1CCNC(=O)[C@H]([C@@H](C)O)NC(=O)[C@H](CCN)NC(=O)[C@H](CCN)NC(=O)[C@H](CC(C)C)NC(=O)[C@@H](CC(C)C)NC(=O)[C@H](CCN)NC1=O)[C@@H](C)O [colistin] | inactive: 0.992
2 | CCc1c(C)[nH]c2c1C(=O)C(CN1CCOCC1)CC2 (centres undefined) [Molindone hydrochloride] + CCC(C)CCCC(=O)N[C@@H](CCN)C(=O)N[C@H](C(=O)N[C@@H](CCN)C(=O)N[C@H]1CCNC(=O)[C@H]([C@@H](C)O)NC(=O)[C@H](CCN)NC(=O)[C@H](CCN)NC(=O)[C@H](CC(C)C)NC(=O)[C@@H](CC(C)C)NC(=O)[C@H](CCN)NC1=O)[C@@H](C)O [colistin] | inactive: 1.02
3 | CCCCS(=O)(=O)N[C@@H](Cc1ccc(OCCCCC2CCNCC2)cc1)C(=O)O [Tirofiban hydrochloride monohydrate] + CCC(C)CCCC(=O)N[C@@H](CCN)C(=O)N[C@H](C(=O)N[C@@H](CCN)C(=O)N[C@H]1CCNC(=O)[C@H]([C@@H](C)O)NC(=O)[C@H](CCN)NC(=O)[C@H](CCN)NC(=O)[C@H](CC(C)C)NC(=O)[C@@H](CC(C)C)NC(=O)[C@H](CCN)NC1=O)[C@@H](C)O [colistin] | inactive: 1.06
4 | O=C1CC2(CCCC2)CC(=O)N1CCCCN1CCN(c2ncccn2)CC1 [Buspirone hydrochloride] + CCC(C)CCCC(=O)N[C@@H](CCN)C(=O)N[C@H](C(=O)N[C@@H](CCN)C(=O)N[C@H]1CCNC(=O)[C@H]([C@@H](C)O)NC(=O)[C@H](CCN)NC(=O)[C@H](CCN)NC(=O)[C@H](CC(C)C)NC(=O)[C@@H](CC(C)C)NC(=O)[C@H](CCN)NC1=O)[C@@H](C)O [colistin] | inactive: 1.17
5 | Cc1ccc(Nc2nccc(N(C)c3ccc4c(C)n(C)nc4c3)n2)cc1S(N)(=O)=O [Pazopanib] + CCC(C)CCCC(=O)N[C@@H](CCN)C(=O)N[C@H](C(=O)N[C@@H](CCN)C(=O)N[C@H]1CCNC(=O)[C@H]([C@@H](C)O)NC(=O)[C@H](CCN)NC(=O)[C@H](CCN)NC(=O)[C@H](CC(C)C)NC(=O)[C@@H](CC(C)C)NC(=O)[C@H](CCN)NC1=O)[C@@H](C)O [colistin] | inactive: 0.984
6 | CN1CCC[C@@H]1Cc1c[nH]c2ccc(CCS(=O)(=O)c3ccccc3)cc12 [Eletriptan hydrobromide] + CCC(C)CCCC(=O)N[C@@H](CCN)C(=O)N[C@H](C(=O)N[C@@H](CCN)C(=O)N[C@H]1CCNC(=O)[C@H]([C@@H](C)O)NC(=O)[C@H](CCN)NC(=O)[C@H](CCN)NC(=O)[C@H](CC(C)C)NC(=O)[C@@H](CC(C)C)NC(=O)[C@H](CCN)NC1=O)[C@@H](C)O [colistin] | inactive: 1.1
7 | C#Cc1cccc(Nc2ncnc3cc(OCCOC)c(OCCOC)cc23)c1 [Erlotinib] + CCC(C)CCCC(=O)N[C@@H](CCN)C(=O)N[C@H](C(=O)N[C@@H](CCN)C(=O)N[C@H]1CCNC(=O)[C@H]([C@@H](C)O)NC(=O)[C@H](CCN)NC(=O)[C@H](CCN)NC(=O)[C@H](CC(C)C)NC(=O)[C@@H](CC(C)C)NC(=O)[C@H](CCN)NC1=O)[C@@H](C)O [colistin] | inactive: 1.17
8 | CC(=O)OCC(=O)[C@H]1CC[C@H]2[C@@H]3CCC4=CC(=O)CC[C@]4(C)[C@H]3CC[C@]12C [Deoxycorticosterone acetate] + CCC(C)CCCC(=O)N[C@@H](CCN)C(=O)N[C@H](C(=O)N[C@@H](CCN)C(=O)N[C@H]1CCNC(=O)[C@H]([C@@H](C)O)NC(=O)[C@H](CCN)NC(=O)[C@H](CCN)NC(=O)[C@H](CC(C)C)NC(=O)[C@@H](CC(C)C)NC(=O)[C@H](CCN)NC1=O)[C@@H](C)O [colistin] | inactive: 1.06
9 | O=C1O[C@H](CO)[C@@H](O)[C@H](O)[C@H]1O [D-(+)-Glucono-1,5-lactone] + CCC(C)CCCC(=O)N[C@@H](CCN)C(=O)N[C@H](C(=O)N[C@@H](CCN)C(=O)N[C@H]1CCNC(=O)[C@H]([C@@H](C)O)NC(=O)[C@H](CCN)NC(=O)[C@H](CCN)NC(=O)[C@H](CC(C)C)NC(=O)[C@@H](CC(C)C)NC(=O)[C@H](CCN)NC1=O)[C@@H](C)O [colistin] | inactive: 1.15

Shown comma-delimited: entries from further up.
Row,SMILES,OD600
7,C#Cc1cccc(Nc2ncnc3cc(OCCOC)c(OCCOC)cc23)c1 [Erlotinib] + CCC(C)CCCC(=O)N[C@@H](CCN)C(=O)N[C@H](C(=O)N[C@@H](CCN)C(=O)N[C@H]1CCNC(=O)[C@H]([C@@H](C)O)NC(=O)[C@H](CCN)NC(=O)[C@H](CCN)NC(=O)[C@H](CC(C)C)NC(=O)[C@@H](CC(C)C)NC(=O)[C@H](CCN)NC1=O)[C@@H](C)O [colistin],inactive: 1.17
9,"O=C1O[C@H](CO)[C@@H](O)[C@H](O)[C@H]1O [D-(+)-Glucono-1,5-lactone] + CCC(C)CCCC(=O)N[C@@H](CCN)C(=O)N[C@H](C(=O)N[C@@H](CCN)C(=O)N[C@H]1CCNC(=O)[C@H]([C@@H](C)O)NC(=O)[C@H](CCN)NC(=O)[C@H](CCN)NC(=O)[C@H](CC(C)C)NC(=O)[C@@H](CC(C)C)NC(=O)[C@H](CCN)NC1=O)[C@@H](C)O [colistin]",inactive: 1.15
